Measured values taken from PMC4912623, “A CD36 ectodomain mediates insect pheromone detection via a putative tunnelling mechanism” (Nature Communications, 2016).
These are yes or no findings as the source states them, for the method shown.

Chains of the proteins cited; added tags and fusions are not shown.
UniProt Q9VDD3: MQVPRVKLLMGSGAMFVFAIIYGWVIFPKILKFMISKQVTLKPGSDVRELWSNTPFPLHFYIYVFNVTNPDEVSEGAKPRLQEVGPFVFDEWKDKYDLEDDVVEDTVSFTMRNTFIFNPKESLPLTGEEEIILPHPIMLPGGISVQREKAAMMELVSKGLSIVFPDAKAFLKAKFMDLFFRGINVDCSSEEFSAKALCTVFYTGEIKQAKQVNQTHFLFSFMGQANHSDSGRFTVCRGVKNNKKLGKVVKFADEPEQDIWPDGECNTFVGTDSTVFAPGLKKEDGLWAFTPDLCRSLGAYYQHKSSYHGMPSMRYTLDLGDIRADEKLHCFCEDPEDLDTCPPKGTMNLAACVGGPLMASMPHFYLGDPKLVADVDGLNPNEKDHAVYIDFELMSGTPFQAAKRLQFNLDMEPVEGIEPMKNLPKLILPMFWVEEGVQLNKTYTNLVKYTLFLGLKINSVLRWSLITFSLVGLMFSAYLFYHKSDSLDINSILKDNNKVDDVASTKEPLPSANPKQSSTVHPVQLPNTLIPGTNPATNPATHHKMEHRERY

Target: Drosophila sensory neuron membrane protein 1 with a C-terminal EGFP tag (SNMP1:EGFP) (D. melanogaster) (UniProt Q9VDD3)
Experiment: single-molecule imaging, counting of EGFP photobleaching steps (total internal reflection fluorescence microscopy); SNMP1:EGFP in the plasma membrane of Xenopus oocytes, 12-24 h after cRNA injection (0.02 ug/ul, 50 nl), expression at 15 °C; bleaching steps of single spots examined by eye

binding: no binding
Substance: Drosophila sensory neuron membrane protein 1 with a C-terminal EGFP tag (SNMP1:EGFP) (from UniProt Q9VDD3 1-551)
